According to publication PMC4429374:
No constants are given. Whether binding was seen depends on the method and setting. In cells and extracts the contact can be indirect. Some results given as binding are weak or reduced against the parent protein; the word gives no strength. For some of these results: Sequences can lack the tags named with a protein. Blank lines part the entries; values can stand above or below the binder they belong to.

What was measured:
[1] = biological target: T1, His-tagged p73 (human (cDNA from MCF-7)) (UniProt O15350); experiment: co-IP; cells cotransfected with Flag-tagged Restin and His-tagged p73; lysed in RIPA buffer; immunoprecipitated with anti-Flag or anti-His antibody (mouse IgG as control) and protein G-Sepharose, 4°C; blotted with His or Flag antibodies
T1 sequence: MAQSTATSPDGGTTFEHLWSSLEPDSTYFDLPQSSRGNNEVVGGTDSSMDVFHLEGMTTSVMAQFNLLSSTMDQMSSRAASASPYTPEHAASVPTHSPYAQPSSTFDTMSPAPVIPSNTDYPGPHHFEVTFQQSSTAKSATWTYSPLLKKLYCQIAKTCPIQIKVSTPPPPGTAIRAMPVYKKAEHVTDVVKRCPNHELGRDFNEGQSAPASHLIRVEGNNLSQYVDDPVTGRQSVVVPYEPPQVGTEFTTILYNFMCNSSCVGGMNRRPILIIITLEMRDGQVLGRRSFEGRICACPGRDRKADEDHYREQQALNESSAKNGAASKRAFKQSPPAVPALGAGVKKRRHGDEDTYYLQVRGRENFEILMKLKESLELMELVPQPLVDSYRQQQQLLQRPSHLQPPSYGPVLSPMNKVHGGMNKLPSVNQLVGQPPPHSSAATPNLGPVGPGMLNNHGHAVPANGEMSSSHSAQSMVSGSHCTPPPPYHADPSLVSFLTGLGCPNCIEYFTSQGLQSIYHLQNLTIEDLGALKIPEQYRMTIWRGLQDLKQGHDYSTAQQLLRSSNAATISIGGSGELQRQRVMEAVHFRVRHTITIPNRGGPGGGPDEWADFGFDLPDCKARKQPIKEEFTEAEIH

[2] = biological target: p53 (endogenous) (human (endogenous in MCF-7)) (UniProt P04637); experiment: co-IP; endogenous proteins; MCF-7 cell extracts immunoprecipitated with mouse IgG or anti-Restin, anti-p73 or anti-p53 antibody, then blotted
[3] = biological target: T2, Flag-tagged Restin (human (cDNA from MCF-7)) (UniProt Q9H213); experiment: co-IP; cells cotransfected with Flag-tagged Restin and His-tagged p73; lysed in RIPA buffer; immunoprecipitated with anti-Flag or anti-His antibody (mouse IgG as control) and protein G-Sepharose, 4°C; blotted with His or Flag antibodies
T2 sequence: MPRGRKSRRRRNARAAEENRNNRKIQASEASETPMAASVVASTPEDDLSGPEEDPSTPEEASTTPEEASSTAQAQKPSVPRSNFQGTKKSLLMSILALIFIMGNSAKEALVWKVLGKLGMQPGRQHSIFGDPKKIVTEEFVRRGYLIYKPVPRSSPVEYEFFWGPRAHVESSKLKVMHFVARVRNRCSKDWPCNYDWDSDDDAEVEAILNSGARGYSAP

[4] = biological target: T3, Restin (endogenous) (human (endogenous in MCF-7)) (UniProt Q9H213); experiment: co-IP; endogenous proteins; MCF-7 cell extracts immunoprecipitated with mouse IgG or anti-Restin, anti-p73 or anti-p53 antibody, then blotted
T3 sequence: T2 sequence

- binding [2]: no binding
B2: Restin (endogenous) (protein, UniProt Q9H213 1-219)
chain: T2 sequence

- binding [4]: binds
B4: p73 (endogenous) (protein, UniProt O15350 1-636)
chain: T1 sequence

The remaining lines, values behind:

B1: Flag-tagged Restin (protein, UniProt Q9H213 1-219)
chain: T2 sequence
- binding [1]: binds

B3: His-tagged p73 (protein, UniProt O15350 1-636)
chain: T1 sequence
- binding [3]: binds
